The values that follow come from US20250230193A1 (CHUGAI SEIYAKU KABUSHIKI KAISHA, priority 2022, published 2025).

The nature of the first series: general procedure: Fmoc solid-phase peptide synthesis; 2-chlorotrityl chloride resin. To be noted: cyclisation step.
In turn, “(1S,7S,11R,13S,19S,22S,26S,29S,35S,37Z,47E)-19-cyclopentyl-7-[2-[3,5-difluoro-4-(trifluoromethyl)phenyl]ethyl]-11-ethoxy-N-ethyl-N,3,18,21,25,31,34-heptamethyl-29-[(1S)-1-methylpropyl]-2,5,8,14,17,20,24,27,30,33,55-undecaoxo-spiro[3,6,9,15,18,21,25,28,31,34,41-undecazapentacyclo[24.15.11.2^43,46.1^35,41.0^9,13]pentapentaconta-37,43(54),44,46(53),47-pentaene-16,1′-cyclobutane]-22-carboxamide” had a cyclisation yield of 3.9%.

The series is the same for the next values; noted with them: whole synthesis.
“(1S,7S,11R,13S,19S,22S,26S,29S,35S,37Z)-19-cyclopentyl-7-[2-[3-methoxy-4-(trifluoromethyl)phenyl]ethyl]-3,3′,3′,18,21,25,31,34-octamethyl-29-[(1S)-1-methylpropyl]-11-propoxy-22-(pyrrolidine-1-carbonyl)spiro[3,6,9,15,18,21,25,28,31,34,41-undecazapentacyclo[24.15.9.2^43,46.1^35,41.0^9,13]tripentaconta-37,43(52),44,46(51)-tetraene-16,1′-cyclobutane]-2,5,8,14,17,20,24,27,30,33,53-undecone” showed an isolated yield of 0.3%.
Consider “(1S,7S,11R,13S,19S,22S,26S,29S,35S,37Z)-19-cyclopentyl-11-ethoxy-7-[2-[3-methoxy-4-(trifluoromethyl)phenyl]ethyl]-3,3′,3′,18,21,25,31,34-octamethyl-29-[(1S)-1-methylpropyl]-22-(piperidine-1-carbonyl)spiro[3,6,9,15,18,21,25,28,31,34,41-undecazapentacyclo[24.15.9.2^43,46.1^35,41.0^9,13]tripentaconta-37,43(52),44,46(51)-tetraene-16,1′-cyclobutane]-2,5,8,14,17,20,24,27,30,33,53-undecone”, for which the isolated yield amounted to 0.6%.
The same measure, in the same setting: with “(1S,7S,11R,13S,19S,22S,26S,29S,35S,37Z)-19-cyclopentyl-11-ethoxy-7-[2-[3-methoxy-4-(trifluoromethyl)phenyl]ethyl]-3,3′,3′,18,21,25,31,34-octamethyl-29-[(1S)-1-methylpropyl]-22-(piperidine-1-carbonyl)spiro[3,6,9,15,18,21,25,28,31,34,41-undecazapentacyclo[24.15.10.2^43,46.1^35,41.0^9,13]tetrapentaconta-37,43(53),44,46(52)-tetraene-16,1′-cyclobutane]-2,5,8,14,17,20,24,27,30,33,54-undecone” the figure was 9.3%; with “(1S,7S,11R,13S,19S,22S,26S,29S,35S,37Z)-19-cyclopentyl-11-ethoxy-7-[2-[3-methoxy-4-(trifluoromethyl)phenyl]ethyl]-3,3′,3′,18,21,25,31,34-octamethyl-29-[(1S)-1-methylpropyl]-22-(pyrrolidine-1-carbonyl)spiro[3,6,9,15,18,21,25,28,31,34,41-undecazapentacyclo[24.15.10.2^43,46.1^35,41.0^9,13]tetrapentaconta-37,43(53),44,46(52)-tetraene-16,1′-cyclobutane]-2,5,8,14,17,20,24,27,30,33,54-undecone”, 9.8%.
Turning to “(1S,7S,11R,13S,19S,22S,26S,29S,35S,37Z)-19-cyclopentyl-11-ethoxy-7-[2-[3-methoxy-4-(trifluoromethyl)phenyl]ethyl]-3,3′,3′,18,21,25,31,34-octamethyl-29-[(1S)-1-methylpropyl]-22-(pyrrolidine-1-carbonyl)spiro[3,6,9,15,18,21,25,28,31,34,41-undecazapentacyclo[24.15.11.2^43,46.1^35,41.0^9,13]pentapentaconta-37,43(54),44,46(53)-tetraene-16,1′-cyclobutane]-2,5,8,14,17,20,24,27,30,33,55-undecone”, the isolated yield worked out at 15.4%.
For “(1S,7S,11R,13S,19S,22S,26S,29S,35S,37Z)-19-cyclopentyl-11-ethoxy-7-[2-[3-methoxy-4-(trifluoromethyl)phenyl]ethyl]-3,18,21,25,31,34-hexamethyl-29-[(1S)-1-methylpropyl]-22-(piperidine-1-carbonyl)spiro[3,6,9,15,18,21,25,28,31,34,41-undecazapentacyclo[24.15.11.2^43,46.1^35,41.0^9,13]pentapentaconta-37,43(54),44,46(53)-tetraene-16,1′-cyclobutane]-2,5,8,14,17,20,24,27,30,33,55-undecone”, the isolated yield is 10.0%.
“(1S,7S,11R,13S,19S,22S,26S,29S,35S,37Z)-19-cyclopentyl-11-ethoxy-N-ethyl-7-[2-[3-methoxy-4-(trifluoromethyl)phenyl]ethyl]-N,3,3′,3′,18,21,25,31,34-nonamethyl-29-[(1S)-1-methylpropyl]-2,5,8,14,17,20,24,27,30,33,55-undecaoxo-spiro[3,6,9,15,18,21,25,28,31,34,41-undecazapentacyclo[24.15.11.2^43,46.1^35,41.0^9,13]pentapentaconta-37,43(54),44,46(53)-tetraene-16,1′-cyclobutane]-22-carboxamide” came in with an isolated yield of 7.6%.
Same read-out and setting: next, “(1S,7S,11R,13S,19S,22S,26S,29S,35S,37Z,47E)-7-[2-(3,4-dichlorophenyl)ethyl]-11-ethoxy-19-(1-ethylpropyl)-3,18,21,25,31,34-hexamethyl-29-[(1S)-1-methylpropyl]-22-(pyrrolidine-1-carbonyl)spiro[3,6,9,15,18,21,25,28,31,34,41-undecazapentacyclo[24.15.11.2^43,46.1^35,41.0^9,13]pentapentaconta-37,43(54),44,46(53),47-pentaene-16,1′-cyclobutane]-2,5,8,14,17,20,24,27,30,33,55-undecone”: 27.7%; “(1S,7S,11R,13S,19S,22S,26S,29S,35S,37Z,47E)-7-[2-[3,5-difluoro-4-(trifluoromethyl)phenyl]ethyl]-11-ethoxy-19-(1-ethylpropyl)-3,3′,3′,18,21,25,31,34-octamethyl-29-[(1S)-1-methylpropyl]-22-(pyrrolidine-1-carbonyl)spiro[3,6,9,15,18,21,25,28,31,34,41-undecazapentacyclo[24.15.10.2^43,46.1^35,41.0^9,13]tetrapentaconta-37,43(53),44,46(52),47-pentaene-16,1′-cyclobutane]-2,5,8,14,17,20,24,27,30,33,54-undecone”: 16.4%.
On the same count and under the same terms, next, “(1S,7S,11R,13S,19S,22S,26S,29S,35S,37Z,47E)-19-cyclopentyl-7-[2-[3,5-difluoro-4-(trifluoromethyl)phenyl]ethyl]-11-ethoxy-3,3′,3′,18,21,25,31,34-octamethyl-29-[(1S)-1-methylpropyl]-22-(pyrrolidine-1-carbonyl)spiro[3,6,9,15,18,21,25,28,31,34,41-undecazapentacyclo[24.15.10.2^43,46.1^35,41.0^9,13]tetrapentaconta-37,43(53),44,46(52),47-pentaene-16,1′-cyclobutane]-2,5,8,14,17,20,24,27,30,33,54-undecone”: 21.1%; “(1S,7S,11R,13S,19S,22S,26S,29S,35S,37Z,47E)-19-cyclopentyl-7-[2-[3,5-difluoro-4-(trifluoromethyl)phenyl]ethyl]-11-ethoxy-N-ethyl-N,3,18,21,25,31,34-heptamethyl-29-[(1S)-1-methylpropyl]-2,5,8,14,17,20,24,27,30,33,55-undecaoxo-spiro[3,6,9,15,18,21,25,28,31,34,41-undecazapentacyclo[24.15.11.2^43,46.1^35,41.0^9,13]pentapentaconta-37,43(54),44,46(53),47-pentaene-16,1′-cyclobutane]-22-carboxamide”: 3.9%.
Same read-out and setting: next, “(1S,7S,11R,13S,19S,22S,26S,29S,35S,37Z,47E)-19-cyclopentyl-11-ethoxy-N-ethyl-7-[2-[3-methoxy-4-(trifluoromethyl)phenyl]ethyl]-N,3,3′,3′,18,21,25,31,34-nonamethyl-29-[(1S)-1-methylpropyl]-2,5,8,14,17,20,24,27,30,33,55-undecaoxo-spiro[3,6,9,15,18,21,25,28,31,34,41-undecazapentacyclo[24.15.11.2^43,46.1^35,41.0^9,13]pentapentaconta-37,43(54),44,46(53),47-pentaene-16,1′-cyclobutane]-22-carboxamide”: 4.3%.
“(1S,7S,11R,13S,19S,22S,26S,29S,35S,37Z,47E)-19-cyclopentyl-31-cyclopropyl-7-[2-[3,5-difluoro-4-(trifluoromethyl)phenyl]ethyl]-11-ethoxy-3,3′,3′,18,21,25,34-heptamethyl-29-[(1S)-1-methylpropyl]-22-(pyrrolidine-1-carbonyl)spiro[3,6,9,15,18,21,25,28,31,34,41-undecazapentacyclo[24.15.10.2^43,46.1^35,41.0^9,13]tetrapentaconta-37,43(53),44,46(52),47-pentaene-16,1′-cyclobutane]-2,5,8,14,17,20,24,27,30,33,54-undecone” registered an isolated yield of 23.8%.
Same read-out and setting: next, “(1S,7S,11R,13S,19S,22S,26S,29S,35S,37Z,47E)-31-cyclopropyl-7-[2-[3,5-difluoro-4-(trifluoromethyl)phenyl]ethyl]-11-ethoxy-19-(1-ethylpropyl)-3,18,21,25,34-pentamethyl-29-[(1S)-1-methylpropyl]-22-(pyrrolidine-1-carbonyl)spiro[3,6,9,15,18,21,25,28,31,34,41-undecazapentacyclo[24.15.10.2^43,46.1^35,41.0^9,13]tetrapentaconta-37,43(53),44,46(52),47-pentaene-16,1′-cyclobutane]-2,5,8,14,17,20,24,27,30,33,54-undecone”: 31.2%.
